The values below come from PMC11555233.

By UniProt entry, the sequences of proteins in these tests, tags left out. Where a name states a change or a piece, a line headed by the entry shows the natural chain unless it says otherwise.
UniProt Q13485: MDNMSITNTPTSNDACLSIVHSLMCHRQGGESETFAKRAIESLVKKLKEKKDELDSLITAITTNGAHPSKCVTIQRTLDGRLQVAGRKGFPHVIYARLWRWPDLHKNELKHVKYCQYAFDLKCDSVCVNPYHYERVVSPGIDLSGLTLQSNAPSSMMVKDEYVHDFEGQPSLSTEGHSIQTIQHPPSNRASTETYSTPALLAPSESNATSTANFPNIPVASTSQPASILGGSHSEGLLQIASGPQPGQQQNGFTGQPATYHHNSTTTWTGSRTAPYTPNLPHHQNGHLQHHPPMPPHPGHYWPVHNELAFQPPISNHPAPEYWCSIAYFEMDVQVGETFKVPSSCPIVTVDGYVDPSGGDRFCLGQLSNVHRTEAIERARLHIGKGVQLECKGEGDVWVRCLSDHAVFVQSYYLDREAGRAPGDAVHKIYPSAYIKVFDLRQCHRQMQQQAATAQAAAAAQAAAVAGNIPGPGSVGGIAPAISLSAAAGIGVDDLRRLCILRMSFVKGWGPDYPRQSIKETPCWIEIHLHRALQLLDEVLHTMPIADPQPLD
UniProt P09874: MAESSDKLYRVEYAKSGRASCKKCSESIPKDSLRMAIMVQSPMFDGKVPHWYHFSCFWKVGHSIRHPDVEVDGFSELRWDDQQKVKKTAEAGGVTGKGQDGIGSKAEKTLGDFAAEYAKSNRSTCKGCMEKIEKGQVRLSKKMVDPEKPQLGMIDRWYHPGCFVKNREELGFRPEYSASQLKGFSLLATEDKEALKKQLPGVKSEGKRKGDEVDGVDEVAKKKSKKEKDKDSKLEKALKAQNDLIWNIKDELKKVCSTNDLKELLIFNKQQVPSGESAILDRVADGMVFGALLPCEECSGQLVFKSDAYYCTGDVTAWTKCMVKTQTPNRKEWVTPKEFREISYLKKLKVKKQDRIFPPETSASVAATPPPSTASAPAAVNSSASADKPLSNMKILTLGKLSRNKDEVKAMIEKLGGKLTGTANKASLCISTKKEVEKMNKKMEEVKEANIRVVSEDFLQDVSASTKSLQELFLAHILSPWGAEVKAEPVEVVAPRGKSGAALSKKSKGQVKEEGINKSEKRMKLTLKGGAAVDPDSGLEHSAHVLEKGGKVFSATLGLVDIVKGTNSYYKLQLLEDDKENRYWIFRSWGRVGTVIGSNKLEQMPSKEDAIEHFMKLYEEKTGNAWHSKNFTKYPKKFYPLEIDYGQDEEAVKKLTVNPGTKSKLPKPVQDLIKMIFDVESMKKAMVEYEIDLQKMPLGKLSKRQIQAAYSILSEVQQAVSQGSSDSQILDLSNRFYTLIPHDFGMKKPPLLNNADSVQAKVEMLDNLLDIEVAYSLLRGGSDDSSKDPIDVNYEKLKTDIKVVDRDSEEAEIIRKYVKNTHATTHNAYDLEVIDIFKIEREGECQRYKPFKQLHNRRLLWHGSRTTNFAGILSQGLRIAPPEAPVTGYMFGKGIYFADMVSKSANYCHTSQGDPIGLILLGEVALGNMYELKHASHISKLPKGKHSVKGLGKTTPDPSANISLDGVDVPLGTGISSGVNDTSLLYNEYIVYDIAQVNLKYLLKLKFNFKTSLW

The test deals with SMAD4-5KA mutant (UniProt Q13485). Nature of the test: co-IP; HEK293FT cells with SMAD4 and PARP1 constructs (WT and mutants); lysis in NETN buffer (20 mM Tris-HCl pH 8.0, 100 mM NaCl, 1 mM EDTA, 0.5% NP-40), affinity beads overnight at 4 °C; bait of each panel not given.

Results are given in words; binding and its absence hold for the method and conditions named. Binding seen in cells or lysates may run through a third protein. Binding can be weak; no strength is given.

With PARP1 (WT) (from UniProt P09874 1-1014), the binding result is on record as “binds”.
